From US20060148715A1, “Structural requirements for STAT3 binding and recruitment to phosphotyrosine ligands” (BAYLOR COLLEGE OF MEDICINE, priority 2004, published 2006)
No constants are given. Whether binding was seen depends on the method and setting. For some assays here: Binding seen in cells or lysates may run through a third protein. Some binding calls cover weakened binding; strength is not graded here.

Protein sequences, listed by entry. Tags and fused reporters are not part of them. Lines headed by an entry give the natural chain unless they say otherwise; changes in a name come on top. Chains listed by the source or under a name are the forms on record and can include a tag or linker.
Stat3-3M+C687A (P40763, form named): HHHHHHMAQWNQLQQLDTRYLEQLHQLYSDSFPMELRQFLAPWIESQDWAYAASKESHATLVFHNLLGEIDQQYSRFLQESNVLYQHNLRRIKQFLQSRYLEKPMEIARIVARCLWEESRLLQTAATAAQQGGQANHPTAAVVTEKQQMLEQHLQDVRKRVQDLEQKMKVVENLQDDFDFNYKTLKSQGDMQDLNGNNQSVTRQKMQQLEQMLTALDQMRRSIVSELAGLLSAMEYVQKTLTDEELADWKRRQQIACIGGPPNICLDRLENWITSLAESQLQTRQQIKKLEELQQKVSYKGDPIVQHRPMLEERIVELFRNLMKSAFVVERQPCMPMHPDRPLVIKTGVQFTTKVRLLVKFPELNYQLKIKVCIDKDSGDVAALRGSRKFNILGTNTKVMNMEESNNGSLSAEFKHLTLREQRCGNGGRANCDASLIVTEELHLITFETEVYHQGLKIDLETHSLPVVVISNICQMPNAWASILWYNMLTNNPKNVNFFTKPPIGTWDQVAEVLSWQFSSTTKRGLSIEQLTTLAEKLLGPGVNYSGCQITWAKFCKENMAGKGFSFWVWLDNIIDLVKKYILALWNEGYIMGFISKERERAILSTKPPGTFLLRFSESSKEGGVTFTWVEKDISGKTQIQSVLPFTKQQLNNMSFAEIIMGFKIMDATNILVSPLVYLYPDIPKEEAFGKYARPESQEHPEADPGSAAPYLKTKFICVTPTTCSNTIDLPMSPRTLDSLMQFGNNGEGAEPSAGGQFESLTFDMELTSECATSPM
Stat3-3M+K591L (P40763, form named): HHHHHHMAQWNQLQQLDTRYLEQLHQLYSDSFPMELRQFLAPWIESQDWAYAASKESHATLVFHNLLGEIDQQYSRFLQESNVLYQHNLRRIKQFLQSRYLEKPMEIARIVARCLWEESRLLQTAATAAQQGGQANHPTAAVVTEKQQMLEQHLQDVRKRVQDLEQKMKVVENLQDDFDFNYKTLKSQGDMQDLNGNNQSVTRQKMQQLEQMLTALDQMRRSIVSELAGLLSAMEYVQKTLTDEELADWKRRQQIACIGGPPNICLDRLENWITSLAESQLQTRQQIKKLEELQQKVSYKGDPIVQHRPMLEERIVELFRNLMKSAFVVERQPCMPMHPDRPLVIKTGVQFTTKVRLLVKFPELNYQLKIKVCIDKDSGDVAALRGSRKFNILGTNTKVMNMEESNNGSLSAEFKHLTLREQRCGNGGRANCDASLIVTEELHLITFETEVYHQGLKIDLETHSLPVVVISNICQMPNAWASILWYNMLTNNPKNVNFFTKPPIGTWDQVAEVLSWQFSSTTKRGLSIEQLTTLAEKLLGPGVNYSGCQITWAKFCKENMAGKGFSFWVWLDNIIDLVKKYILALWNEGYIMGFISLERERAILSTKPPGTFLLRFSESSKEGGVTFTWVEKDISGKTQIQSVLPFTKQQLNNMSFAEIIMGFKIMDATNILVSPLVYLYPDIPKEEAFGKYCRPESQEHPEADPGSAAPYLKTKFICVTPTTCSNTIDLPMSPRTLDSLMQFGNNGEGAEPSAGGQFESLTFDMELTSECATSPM

Columns and labels:
[1] = molecular target: T1, Y1068 non-phosphorylated dodecapeptide (EGFR); assay: peptide pull-down: biotinylated peptide on NeutrAvidin agarose, purified His-tagged Stat3 protein added, bound protein immunoblotted with Stat3 mAb
T1 sequence (peptide, N-terminal biotin (d-Biotin-LC)): LPVPEYINQSVP

[2] = molecular target: T1, Y1068 non-phosphorylated dodecapeptide (EGFR); assay: mirror resonance biosensor: biotinylated peptide on NeutrAvidin-coated cuvette, Stat3 protein in solution, association followed for about 10 min

Row | binding [1] | binding [2] | Substance
1 | binds |  | Stat3-3M+C687A (from UniProt P40763 1-770)
2 |  | no binding (tested: 600 nM) | Stat3-3M+K591L (from UniProt P40763 1-770)
